A short description of the assay: IkB Signaling. As to conditions: ABC-DLBCL IkBa-CBG/CBR dual luciferase ratio (green luciferase fused to IkBa over red control in OCI-Ly3 lymphoma cells), 4 h. The method in brief:
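Curves were fitted separately to fusion (green), unfused (red) and ratio luminescence, then classed by r2, magnitude and activity. Cells: OCI-Ly3, 4 h compound plus doxycycline at 37C; 10 uM MG-132 defined full response.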

[1] abbreviates: measured here: control luc red channel unless noted.
The mark [2] stands for this setting: measured here: IkB-luc green channel.
Where [3] appears, read: measured here: control luc red channel.

Among the data in PubChem BioAssay AID445 (National Center for Advancing Translational Sciences (NCATS), 2006) are AC50 values, retold here.

Where “and” joins values, the source holds several entries; their conditions need not be identical. Equal values may be shown once. The list shows a part of the results. Shown are side measurements of this screen, not its main read-out; they come without a call. Most of these compounds were active or inconclusive in the main read-out, so they are no random draw. Potencies come from curve fits of mixed quality, noted in brackets.

As usually defined, the AC50 is the concentration at which the activity in the assay is half-maximal. For `COc1ccc(NC(=O)CN2C(=O)COc3ccc(S(=O)(=O)Nc4ccccc4)cc32)cc1`, the AC50 under setting [1] is 7.94 µM [falling, single point].

Turning to `Cc1ccc2nc(-c3ccc(Cl)cc3)cc(C(=O)OCC(=O)c3ccccc3)c2c1`, under setting [1], the half-maximal activity concentration (AC50) is 0.126 µM [falling, full curve, poor fit].

`COc1ccc(C(=O)NCCc2sc(-c3ccc(F)cc3)nc2C)cc1OC`: the AC50 under setting [1] was 15.8 µM [falling, partial curve].

Turning to `CC1CCC(NC(=O)C2(C)Cc3ccccc3C(=O)N2Cc2ccc(F)cc2)CC1` (centres undefined), the AC50 under setting [1] was 2.51 µM [falling, partial curve].

With `CCc1ccc(C2Sc3ccccc3NC3=C2C(=O)c2ccccc23)cc1` (centres undefined), the AC50 under setting [1] is 7.94 µM [falling, partial curve].

Take `CCC(C(=O)NC1CCCCC1)n1c(SCc2ccc(F)cc2)nc2ccncc21` (centres undefined): the AC50 under setting [1] was 2 µM [falling, full curve].

For the compound `O=C(COc1ccccc1-c1nnc(-c2ccccc2)o1)Nc1ccc(Br)cc1F`, the AC50 under setting [1] is 6.31 µM [falling, partial curve].

For the compound `Cc1cccc(NCc2nc3ccccc3n2CCOc2ccccc2C)c1`, the AC50 under setting [1] is 12.6 µM [falling, partial curve].

Regarding `COc1ccc(NC(=O)c2c(C)oc3ccc(O)c(CN4CCCC4)c23)cc1Cl`, the concentration at half-maximal activity (AC50) under setting [1] is 20 µM [falling, single point].

In the case of `CCCN(CC(=O)c1cc(C)n(C)c1C)S(=O)(=O)c1cccc(C(F)(F)F)c1`, under setting [1], the AC50 is 10 µM [falling, partial curve].

In the case of `COc1ccc(NC(=O)C2CCC(CNS(=O)(=O)c3ccc4c(c3)C(C)(C)C(=O)N4C)CC2)cc1` (centres undefined), the AC50 under setting [1] is 2.51 µM [rising, partial curve, poor fit].

With `COc1cc2cc(C(c3nnnn3C3CCCC3)N3CCc4ccccc43)c(=O)[nH]c2cc1OC` (centres undefined), the AC50 under setting [1] was 39.8 µM [falling, partial curve].

Take `CC(C)c1cc(=O)oc2c3c4c(cc12)CCCN4CCC3`: the AC50 under setting [1] was 15.8 µM [falling, partial curve].

Take `Cc1cccc(N2CCN(C(=O)Cn3ncc4c3-c3ccccc3OC4)CC2)c1C`: the AC50 under setting [1] is 20 µM [falling, partial curve].

Regarding `O=C(Nc1nnc(S(=O)(=O)N2CCCCCC2)s1)c1cccc(Br)c1`, the AC50 under setting [1] was 12.6 µM [falling, partial curve].

On to `N#Cc1ccccc1Cn1c(SCC(=O)Nc2ccc(F)cc2)nc2ccccc21`, for which, under setting [1], the AC50 was 39.8 µM [falling, single point].

Turning to `Clc1cccc(N2CCN(c3c4c(nc5nncn35)CCC4)CC2)c1`, the AC50 under setting [1] was 25.1 µM [falling, single point].

For the compound `CCc1ccc(OCC(=O)NCc2ccco2)c(Br)c1`, under setting [1], the AC50 is 20 µM [falling, single point].

With `O=C(Nc1ccc(N2CCOCC2)cc1)c1cnsn1`, the concentration at half-maximal activity (AC50) under setting [1] is 20 µM [falling, partial curve].

`O=C(Nc1cccc(Cl)c1)c1cc(-c2ccccc2)on1`: the AC50 under setting [1] is 0.0251 µM [falling, full curve].

On to `O=c1[nH]c(C2CCCN(S(=O)(=O)c3ccccc3Cl)C2)nc2c1nnn2Cc1ccc(OC(F)(F)F)cc1` (centres undefined), for which the AC50 under setting [1] was 25.1 µM [falling, partial curve].

With `CC1CN(C(=O)CN2C(=O)NC(C)(c3ccccc3)C2=O)CC(C)O1` (centres undefined), under setting [1], the AC50 is 25.1 µM [rising, partial curve].

With `CCc1nn(CCCC(=O)N2CCN(c3ccc(OC)cc3)CC2)c(=O)c2cc3occc3n12`, the AC50 under setting [1] was 39.8 µM [falling, single point].

Regarding `Cc1c(-c2cccc(NC(=O)Nc3ccccc3)c2)nc2ncccn12`, under setting [1], the AC50 was 39.8 µM [falling, single point].

Turning to `CCOC(=O)c1ccccc1NC(=O)c1ccc2c(Cl)c3c(nc2c1)CCC3`, the AC50 under setting [1] was 3.16 µM [falling, partial curve].

As for `CNC(=O)[C@@H]1O[C@@H](n2cnc3c(NCc4ccc(N)cc4)ncnc32)[C@@H](O)[C@H]1O`, the half-maximal activity concentration (AC50) under setting [2] was 2 µM [rising, full curve] and the AC50 under setting [3] is 3.16 µM [rising, full curve, poor fit].

As for `COc1ccc(N(C)C(=O)c2nc(-c3cccc(F)c3)n3c2CCCCC3)c(OC)c1`, the AC50 under setting [1] was 39.8 µM [falling, single point].

As to `Cc1c(Cl)cccc1NC(=O)c1cc2sccc2n1Cc1ccc(F)cc1`, under setting [1], the AC50 is 0.00794 µM [rising, full curve, poor fit].

Consider `Cc1ccc(-c2cc(C(=O)N3CCCC3)no2)cc1`, for which the AC50 under setting [1] was 1.58 µM [falling, full curve].

With `Cc1cccn2c(=O)c(C=Nc3ccc(Cl)cc3)c(NCCO)nc12`, under setting [1], the AC50 is 5.01 µM [falling, full curve].

Turning to `O=C(CSc1nc2ccccc2nc1Cc1ccccc1)N1CCN(c2ccccc2)CC1`, the AC50 under setting [1] is 39.8 µM [falling, single point].

As for `CC(=O)Nc1cc(-c2ccccc2)nn1Cc1cccc(Cl)c1`, the AC50 under setting [1] is 15.8 µM [falling, partial curve].

`CC12CCC(c3c(C(=O)Nc4nccs4)nn(-c4ccccc4)c31)C2(C)C` (centres undefined): the AC50 under setting [1] was 15.8 µM [falling, partial curve].

Consider `Cc1noc(NS(=O)(=O)c2ccc(NC(=O)c3ccc(Br)cc3)cc2)c1C`, for which the AC50 under setting [1] is 31.6 µM [falling, single point].

As to `Cc1ccc(OCc2nnc(SCC(=O)CC(=O)Nc3ccccc3)o2)cc1`, the AC50 under setting [1] is 39.8 µM [falling, single point].

For the compound `Cc1c(Cl)cccc1NC(=O)c1ccc2nc(C(C)C)oc2c1`, the AC50 under setting [1] is 3.98 µM [falling, partial curve].

Turning to `CC(C)(C)c1ccc(-c2nnc3sc(-c4ccccn4)nn23)cc1`, under setting [1], the concentration at half-maximal activity (AC50) was 10 µM [falling, partial curve].

`CCC(=O)Nc1ccccc1-c1nc2ccccc2n(C(C)C(=O)Nc2ccc(OC)cc2)c1=O` (centres undefined): the AC50 under setting [1] was 12.6 µM [falling, partial curve].

Take `O=C(O)c1ccc(N2C(=O)c3[nH]nc(-c4ccccc4)c3C2c2cccc(F)c2)cc1` (centres undefined): the AC50 under setting [1] is 15.8 µM [falling, partial curve].

As to `COc1cccc(C2C(=O)N(C3CCCCC3)CC(=O)N2Cc2ccc(Cl)cc2)c1` (centres undefined), the AC50 under setting [1] is 15.8 µM [falling, partial curve].

Turning to `Cc1ccc2c(c1)C(=O)OC(C(=O)Nc1ncc(Cc3ccccc3)s1)C2` (centres undefined), the AC50 under setting [1] is 39.8 µM [falling, single point].

As for `CC1Cc2cc(S(=O)(=O)CCC(=O)Nc3ccc(Cl)cc3F)ccc2N1C(=O)C1CC1` (centres undefined), under setting [1], the AC50 is 15.8 µM [falling, single point].

For the compound `CC(C)Oc1ccc(C(=O)Nc2ccc(-c3nc4ccccc4s3)cc2)cc1`, under setting [1], the AC50 is 0.1 µM [falling, full curve, poor fit].

On to `CC(C)N(Cc1nc(-c2ccccc2)no1)C(=O)c1ccc(Br)o1`, for which the concentration at half-maximal activity (AC50) under setting [1] is 25.1 µM [falling, partial curve].

Turning to `COc1ccccc1C(=O)Nc1cc(-c2ccc(C)cc2)no1`, the AC50 under setting [1] was 39.8 µM [falling, single point].

`Cc1ccccc1Cn1c(CN2CCN(c3cc(Cl)ccc3C)CC2)nc2c1c(=O)[nH]c(=O)n2C`: under setting [1], the AC50 is 3.16 µM [falling, full curve].

As for `O=C(CC(=O)c1ccccc1)Nc1ccc2c(c1)OCCO2`, under setting [1], the AC50 was 10 µM [falling, partial curve].

As to `COc1ccc(CCNC(=O)CCc2c(C)c3cc4c(C)coc4cc3oc2=O)cc1`, under setting [1], the AC50 was 39.8 µM [falling, partial curve].

As for `Cc1ccc(C)c(N2CCN(C(=O)c3cc4sccc4n3C)CC2)c1`, under setting [1], the AC50 was 15.8 µM [falling, partial curve].

Consider `CCN(CC)S(=O)(=O)c1ccc2c(c1)N(CC(=O)NCc1ccc(F)cc1)C(=O)CO2`, for which the AC50 under setting [1] is 25.1 µM [falling, partial curve, poor fit].

In the case of `Cc1cc(N2CCN(c3cccc(C(F)(F)F)c3)CC2)n2nc(-c3ccccc3C)nc2n1`, the AC50 under setting [1] was 20 µM [falling, single point].

`Cc1ccc2oc(=O)c3cnn(CC(=O)N4CCN(c5cccc(C(F)(F)F)c5)CC4)c3c2c1`: under setting [1], the AC50 is 0.126 µM [falling, full curve, poor fit].

Consider `O=S(=O)(c1cccc(C(F)(F)F)c1)N1CCC(Oc2ccc(-n3cnnn3)cc2)CC1`, for which, under setting [1], the AC50 was 1.26 µM [falling, full curve].

`COc1ccc(NC(=O)C2=C(C)Nc3c(C(=O)Nc4ccc(C)cc4)cnn3C2c2cc(OC)ccc2OC)cc1` (centres undefined): the AC50 under setting [1] is 25.1 µM [falling, single point].

`Cc1cc(C)c2oc(-c3cc(NC(=O)Cc4ccccc4)ccc3Cl)nc2c1`: the AC50 under setting [1] was 2.51 µM [falling, partial curve].

Regarding `COc1cccc(NC(=O)Cn2c(=O)n(Cc3ccccc3)c(=O)c3c2c2cc(C)ccc2n3C)c1`, under setting [1], the AC50 is 1.58 µM [falling, single point].

For `O=C(Nc1ccc([N+](=O)[O-])cc1Cl)c1cc(Cl)ccc1O`, the AC50 under setting [2] was 2.51 µM [falling, full curve]; the AC50 under setting [3] is 3.16 nM [falling, full curve] and 0.251 nM [falling, full curve].

For the compound `N#Cc1c(N)n[nH]c1-c1cc2c([nH]1)CCCC2`, the AC50 under setting [1] was 39.8 µM [falling, single point].

With `COc1cc(OC)c(OC)cc1CN1CCc2nc(N3CCN(c4ccccc4F)CC3)ncc2C1`, the AC50 under setting [1] was 25.1 µM [falling, partial curve].

With `Cc1ccc2c(C)c(C(=O)N3CCC(c4nc5ccccc5s4)CC3)oc2c1C`, the AC50 under setting [1] was 39.8 µM [falling, single point].

For `COc1ccc(C2C=C(c3ccccc3)Nc3nc(NS(=O)(=O)c4ccc(C)cc4)nn32)cc1` (centres undefined), the AC50 under setting [1] is 0.631 µM [rising, full curve, poor fit].

`Cc1nc(N2CCN(C(=O)c3ccco3)CC2)c2oc3ccccc3c2n1`: the AC50 under setting [1] was 12.6 µM [falling, partial curve].
